# Counter-ions that a name gives are not always drawn. ± gives the uncertainty stated by the source. This is one part of the list. Plates or batches differ in their baseline, so values are only roughly comparable.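 Larvae carried a heat-shock-induced fluorescent stripe in rod outer segments, set at 6 dpf; the shedding distance runs from this stripe to the outer segment tip, measured in confocal stacks, about three fish per compound. The controls got 0.2% DMSO vehicle, and the paper flagged compounds with at least a 20% change against the same-week control and p < 0.001 (Dunnett test on mixed-effects models).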
# Test system: Danio rerio larva rod photoreceptor outer segment
# Test: rod outer segment shedding distance Ds, difference from same-week DMSO control mean; higher = less outer segment shedding
# Details: 20 µM; treatment time: 4 days (6-10 dpf)
row,SMILES,rod outer segment shedding distance Ds [um]
1,O=C(O)C(=O)O.[NH-][C@@H]1CCCC[C@H]1[NH-].[Pt+2] [Oxaliplatin],-0.75 ± 0.21
2,"CCCS(=O)(=O)Nc1ccc(F)c(C(=O)c2c[nH]c3ncc(-c4ccc(Cl)cc4)cc23)c1F [Vemurafenib (PLX4032, RG7204)]",-0.51 ± 0.23
3,O=c1cc(N2CCOCC2)oc2c(-c3ccccc3)cccc12,-0.3 ± 0.21
4,O=C(c1ccccc1)c1ccc2n1CCC2C(=O)O (stereo not drawn) [Ketorolac],-0.19 ± 0.18
5,C[C@]12CC[C@@H]3c4ccc(O)cc4CC[C@H]3[C@@H]1C[C@@H](O)[C@@H]2O [Estriol],0.19 ± 0.23
6,CN1C(C(=O)Nc2ccccn2)=C(O)c2ccccc2S1(=O)=O [Piroxicam],0.22 ± 0.17
7,CC(C)(C)NC(=O)[C@H]1CC[C@H]2[C@@H]3CC[C@H]4NC(=O)C=C[C@]4(C)[C@H]3CC[C@]12C [Finasteride],-1.75 ± 0.25
8,Cc1nccn1CC1CCc2c(c3ccccc3n2C)C1=O (stereo not drawn) [Ondansetron HCl],-0.89 ± 0.24
9,C[C@@H]1CN(CC(=O)Nc2ccc3c(c2)Cc2cccc(-c4cc(=O)cc(N5CCOCC5)o4)c2S3)C[C@H](C)O1,-0.9 ± 0.2
10,C#Cc1cccc(Nc2ncnc3cc(OCCOC)c(OCCOC)cc23)c1 [Erlotinib HCl (OSI-744)],-1.08 ± 0.23
11,CC(C)OC(=O)C1=CN(C(=O)c2ccc(F)c(F)c2)CC(C)(C)c2c1[nH]c1ccccc21,-0.06 ± 0.12
12,Oc1ccc2ccccc2c1SSc1c(O)ccc2ccccc12,-0.47 ± 0.12
13,O=C1CC(=O)c2c(Cl)c(Cl)c(Cl)c(Cl)c21,-0.9 ± 0.34
14,"Cc1c(C(=O)Nc2ccc(N3C[C@@H](C)O[C@@H](C)C3)nc2)cccc1-c1ccc(OC(F)(F)F)cc1 [LDE225 (NVP-LDE225,Erismodegib)]",-0.42 ± 0.65
15,CCCN[C@H]1CCc2nc(N)sc2C1 [Pramipexole],1.02 ± 0.26
16,Cc1noc(-c2ccc(CSCCC(=O)O)cc2)c1NC(=O)OC(C)c1ccccc1Cl (stereo not drawn),-0.15 ± 0.18
17,CCn1c(N)c(C(=O)NC)c(=O)c2ccc(C#CC(C)(O)COC)nc21 (stereo not drawn),-0.07 ± 0.12

row,SMILES,rod outer segment shedding distance Ds [um]
1,CCCNC(C)C(=O)Nc1ccccc1C (stereo not drawn) [Prilocaine],-0.05 ± 0.16
2,C[C@@H]1C(=O)O[C@H]2C[C@@]34[C@H]5C[C@@H](C(C)(C)C)[C@]36[C@@H](OC(=O)[C@@H]6O)O[C@@]4(C(=O)O5)[C@]21O [Ginkgolide A],-0.99 ± 0.27
3,COC(=O)c1ccc2c(C(=Nc3ccc(N(C)C(=O)CN4CCN(C)CC4)cc3)c3ccccc3)c(O)[nH]c2c1 [Nintedanib (BIBF 1120)],-1.13 ± 0.34
4,NC(=O)c1noc([C@H](CCCC2CCCCC2)CC(=O)NO)n1,0.57 ± 0.34
5,COCCCOc1cc(C[C@@H](C[C@H](N)[C@@H](O)C[C@H](C(=O)NCC(C)(C)C(N)=O)C(C)C)C(C)C)ccc1OC [Aliskiren Hemifumarate],-0.14 ± 0.23
6,CCc1c2c(nc3ccc(OC(=O)N4CCC(N5CCCCC5)CC4)cc13)-c1cc3c(c(=O)n1C2)COC(=O)[C@]3(O)CC [Irinotecan HCl Trihydrate],-0.2 ± 0.3
7,Cc1cnc(Nc2ccc(OCCN3CCCC3)cc2)nc1Nc1cccc(S(=O)(=O)NC(C)(C)C)c1,-0.52 ± 0.1
8,OC(CC1c2ccccc2-c2cncn21)C1CCCCC1 (stereo not drawn),-0.27 ± 0.28
9,CC1(C)CC(=O)c2c(C(F)(F)F)nn(-c3ccc(C(N)=O)c(N[C@H]4CC[C@H](OC(=O)CN)CC4)c3)c2C1,0.01 ± 0.12
10,CC[C@H]1OC(=O)[C@H](C)[C@@H](O[C@H]2C[C@@](C)(OC)[C@@H](O)[C@H](C)O2)[C@H](C)[C@@H](O[C@@H]2O[C@H](C)C[C@H](N(C)C)[C@H]2O)[C@](C)(O)C[C@@H](C)/C(=N\OCOCCOC)[C@H](C)[C@@H](O)[C@]1(C)O [Roxithromycin],-0.32 ± 0.28
11,C[C@H]1O[C@@H](Oc2c(-c3cc(O)c(O)c(O)c3)oc3cc(O)cc(O)c3c2=O)[C@@H](O)[C@@H](O)[C@@H]1O [Myricitrin],-0.07 ± 0.3
12,CNC[C@H](O)c1cccc(O)c1 [Phenylephrine HCl],-0.26 ± 0.15
13,NCCc1ccc(O)c(O)c1 [Dopamine HCl],0.09 ± 0.2
14,COc1ccc2c(Oc3ccc(NC(=O)c4c(C)n(CC(C)(C)O)n(-c5ccccc5)c4=O)nc3)ccnc2c1,-0.7 ± 0.13
15,COc1ccc2[nH]c([S@@+]([O-])Cc3ncc(C)c(OC)c3C)nc2c1 [Esomeprazole Sodium],-0.45 ± 0.31
16,CCN(CC)Cc1ccc2cc(COC(=O)Nc3ccc(C(=O)NO)cc3)ccc2c1 [Givinostat (ITF2357)],0.64 ± 0.32

# A stretch from further up, for reference:
row,SMILES,rod outer segment shedding distance Ds [um]
8,OC(CC1c2ccccc2-c2cncn21)C1CCCCC1 (stereo not drawn),-0.27 ± 0.28
9,CC1(C)CC(=O)c2c(C(F)(F)F)nn(-c3ccc(C(N)=O)c(N[C@H]4CC[C@H](OC(=O)CN)CC4)c3)c2C1,0.01 ± 0.12
10,CC[C@H]1OC(=O)[C@H](C)[C@@H](O[C@H]2C[C@@](C)(OC)[C@@H](O)[C@H](C)O2)[C@H](C)[C@@H](O[C@@H]2O[C@H](C)C[C@H](N(C)C)[C@H]2O)[C@](C)(O)C[C@@H](C)/C(=N\OCOCCOC)[C@H](C)[C@@H](O)[C@]1(C)O [Roxithromycin],-0.32 ± 0.28
